In article PMC10809513 one finds binding data, which are given here for one substance.

Amino acid sequences for entries named in this document (tags omitted). Residues count along the entry.
UniProt Q9NZQ7, residues 19-290: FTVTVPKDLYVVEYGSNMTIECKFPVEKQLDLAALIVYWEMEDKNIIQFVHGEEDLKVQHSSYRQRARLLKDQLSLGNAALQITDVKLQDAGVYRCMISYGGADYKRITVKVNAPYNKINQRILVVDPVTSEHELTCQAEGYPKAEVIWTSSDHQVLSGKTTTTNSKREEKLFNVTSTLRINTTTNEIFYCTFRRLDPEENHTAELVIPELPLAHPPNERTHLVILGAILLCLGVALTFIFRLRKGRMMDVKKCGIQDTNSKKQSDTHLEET

The target of this assay is T1, Interferon-induced protein with tetratricopeptide repeats 3 (human (endogenous in FaDu and Cal27)) (UniProt O14879).
T1 sequence: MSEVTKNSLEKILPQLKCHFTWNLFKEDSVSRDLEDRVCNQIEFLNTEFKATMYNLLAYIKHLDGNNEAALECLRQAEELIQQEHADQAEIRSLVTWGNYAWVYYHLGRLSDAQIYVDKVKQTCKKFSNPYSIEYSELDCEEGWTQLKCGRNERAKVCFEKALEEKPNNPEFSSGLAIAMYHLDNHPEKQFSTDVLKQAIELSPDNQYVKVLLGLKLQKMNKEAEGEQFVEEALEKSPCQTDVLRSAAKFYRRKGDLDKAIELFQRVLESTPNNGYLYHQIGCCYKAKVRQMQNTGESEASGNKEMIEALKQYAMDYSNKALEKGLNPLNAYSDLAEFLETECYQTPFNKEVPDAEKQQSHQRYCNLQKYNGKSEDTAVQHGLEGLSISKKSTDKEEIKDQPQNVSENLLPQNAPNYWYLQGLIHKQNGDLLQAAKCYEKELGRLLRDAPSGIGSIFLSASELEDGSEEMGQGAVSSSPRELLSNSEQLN
As to the kind of experiment: co-IP; FaDu and Cal27 cell lysates; 2 ug antibody or control IgG overnight at 4 °C, protein A+G agarose 3 h at 4 °C, washed with PBS, Western blotting. In general terms: In western blotting, separated proteins are transferred to a membrane and probed.

These are yes or no findings as the source states them, for the method shown. Binding seen in cells or lysates may run through a third protein. Some results given as binding are weak or reduced against the parent protein; the word gives no strength.

In the case of “Programmed death-ligand 1 (from UniProt Q9NZQ7 19-290)”, the binding result is reported as “binds”.
